In the supplement of paper PMC4604168 (melanoma cell lines):
Some of the results follow. Many values rest on one well or one pass, so single values are uncertain.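 Imaging used 1,536-well plates; nuclei positive for cleaved PARP by antibody were divided by total DNA-stained nuclei to yield the apoptosis fraction. Doses for screening kept most cells viable, and cell lines differ markedly in resting and induced cleaved-PARP levels.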

These compounds were tested on CBRC034 (line from a melanoma biopsy) (assay: cleaved PARP positive nuclei fraction relative to DMSO control; melanoma cells; higher = more apoptosis). Conditions: library dose: low library concentration; 72 h.

Row | Structure (SMILES) | cleaved PARP positive nuclei fraction
1 | Cc1cn(-c2cc(NC(=O)c3ccc(C)c(Nc4nccc(-c5cccnc5)n4)c3)cc(C(F)(F)F)c2)cn1 [nilotinib] + CNC(=O)c1cc(Oc2ccc(NC(=O)Nc3ccc(Cl)c(C(F)(F)F)c3)cc2)ccn1 [sorafenib] (first compound 0.2 µM, partner dose 0.4 µM) | 53.5%
2 | O=c1[nH]nc(Sc2ncc([N+](=O)[O-])s2)n1-c1ccc2c(c1)OCCO2 + Nc1nc(F)nc2c1ncn2[C@@H]1O[C@H](CO)[C@@H](O)[C@@H]1O [fludarabine] (first compound 0.2 µM, partner dose 0.2 µM) | 87.2%
3 | Cc1cn(-c2cc(NC(=O)c3ccc(C)c(Nc4nccc(-c5cccnc5)n4)c3)cc(C(F)(F)F)c2)cn1 [nilotinib] + CCCS(=O)(=O)Nc1ccc(F)c(C(=O)c2c[nH]c3ncc(Cl)cc23)c1F [PLX4720] (first compound 0.2 µM, partner dose 0.08 µM) | 65.1%
4 | O=C(Nc1cc(C(F)(F)F)cc(C(F)(F)F)c1)c1cc(Cl)ccc1O + CC(=O)O[C@@]12CO[C@@H]1C[C@H](O)[C@@]1(C)C(=O)[C@H](O)C3=C(C)[C@@H](OC(=O)[C@H](O)[C@@H](NC(=O)OC(C)(C)C)c4ccccc4)C[C@@](O)([C@@H](OC(=O)c4ccccc4)[C@H]21)C3(C)C [Docetaxel] (first compound 0.016 µM, partner dose 0.0001 µM) | 174%
5 | O=C(/C=C/c1cccnc1)NCCCCC1CCN(C(=O)c2ccccc2)CC1 + Nc1nc(F)nc2c1ncn2[C@@H]1O[C@H](CO)[C@@H](O)[C@@H]1O [fludarabine] (first compound 0.01 µM, partner dose 0.2 µM) | 2100%
6 | N#CC[C@H](C1CCCC1)n1cc(-c2ncnc3[nH]ccc23)cn1 [ruxolitinib] + NC1(c2ccc(-c3nc4ccn5c(=O)[nH]nc5c4cc3-c3ccccc3)cc2)CCC1 [MK2206] (first compound 1 µM, partner dose 0.4 µM) | 43.4%
7 | CCCCCCCCCCCCCCCCCCOP(=O)([O-])OC1CC[N+](C)(C)CC1 [Perifosine] + Cn1c(=O)n(-c2ccc(C(C)(C)C#N)cc2)c2c3cc(-c4cnc5ccccc5c4)ccc3ncc21 [NVP-BEZ235] (first compound 0.4 µM, partner dose 0.004 µM) | 49.1%
8 | CC[C@]1(O)C[C@H]2CN(CCc3c([nH]c4ccccc34)[C@@](C(=O)OC)(c3cc4c(cc3OC)N(C=O)[C@H]3[C@@](O)(C(=O)OC)[C@H](OC(C)=O)[C@]5(CC)C=CCN6CC[C@]43[C@@H]65)C2)C1 [vincristine] + CC(=O)O[C@@]12CO[C@@H]1C[C@H](O)[C@@]1(C)C(=O)[C@H](O)C3=C(C)[C@@H](OC(=O)[C@H](O)[C@@H](NC(=O)OC(C)(C)C)c4ccccc4)C[C@@](O)([C@@H](OC(=O)c4ccccc4)[C@H]21)C3(C)C [Docetaxel] (first compound 0.0001 µM, partner dose 0.0001 µM) | 310%
9 | CCCCCCCCCCCCCCCCCCOP(=O)([O-])OC1CC[N+](C)(C)CC1 [Perifosine] + CO[C@H]1C[C@@H]2CC[C@@H](C)[C@@](O)(O2)C(=O)C(=O)N2CCCC[C@H]2C(=O)O[C@H]([C@H](C)C[C@@H]2CC[C@@H](OCCO)[C@H](OC)C2)CC(=O)[C@H](C)/C=C(\C)[C@@H](O)[C@@H](OC)C(=O)[C@H](C)C[C@H](C)/C=C/C=C/C=C/1C [everolimus] (first compound 0.4 µM, partner dose 0.02 µM) | 69.6%
10 | Cc1ccc(Nc2nccc(N(C)c3ccc4c(C)n(C)nc4c3)n2)cc1S(N)(=O)=O [Pazopanib] + CS(=O)(=O)CCNCc1ccc(-c2ccc3ncnc(Nc4ccc(OCc5cccc(F)c5)c(Cl)c4)c3c2)o1 [lapatinib] (first compound 0.4 µM, partner dose 0.8 µM) | 62.7%
11 | N#CC[C@H](C1CCCC1)n1cc(-c2ncnc3[nH]ccc23)cn1 [ruxolitinib] + C[C@]1(c2nc3c(C(N)=O)cccc3[nH]2)CCCN1 [Veliparib] (first compound 1 µM, partner dose 1.4 µM) | 58.7%
12 | CC[C@]1(O)C[C@H]2CN(CCc3c([nH]c4ccccc34)[C@@](C(=O)OC)(c3cc4c(cc3OC)N(C=O)[C@H]3[C@@](O)(C(=O)OC)[C@H](OC(C)=O)[C@]5(CC)C=CCN6CC[C@]43[C@@H]65)C2)C1 [vincristine] + Cn1cnc2c(F)c(Nc3ccc(Br)cc3Cl)c(C(=O)NOCCO)cc21 [selumetinib] (first compound 0.0001 µM, partner dose 0.015 µM) | 157%
13 | CC[C@]1(O)C[C@H]2CN(CCc3c([nH]c4ccccc34)[C@@](C(=O)OC)(c3cc4c(cc3OC)N(C=O)[C@H]3[C@@](O)(C(=O)OC)[C@H](OC(C)=O)[C@]5(CC)C=CCN6CC[C@]43[C@@H]65)C2)C1 [vincristine] + Nc1cccc2c1CN(C1CCC(=O)NC1=O)C2=O [lenalidomide] (first compound 0.0001 µM, partner dose 1 µM) | 123%
14 | N#CC[C@H](C1CCCC1)n1cc(-c2ncnc3[nH]ccc23)cn1 [ruxolitinib] + CCN(CC)CCNC(=O)c1c(C)[nH]c(/C=C2\C(=O)Nc3ccc(F)cc32)c1C [sunitinib] (first compound 1 µM, partner dose 0.4 µM) | 80.2%
15 | COc1cc([C@@H]2c3cc4c(cc3[C@@H](O[C@@H]3O[C@@H]5CO[C@@H](C)O[C@H]5[C@H](O)[C@H]3O)[C@H]3COC(=O)[C@H]23)OCO4)cc(OC)c1O [etoposide] + O=C(/C=C/c1cccnc1)NCCCCC1CCN(C(=O)c2ccccc2)CC1 [FK866] (first compound 0.02 µM, partner dose 0.01 µM) | 1280%
16 | O=c1[nH]nc(Sc2ncc([N+](=O)[O-])s2)n1-c1ccc2c(c1)OCCO2 + CC(=O)O[C@@]12CO[C@@H]1C[C@H](O)[C@@]1(C)C(=O)[C@H](O)C3=C(C)[C@@H](OC(=O)[C@H](O)[C@@H](NC(=O)OC(C)(C)C)c4ccccc4)C[C@@](O)([C@@H](OC(=O)c4ccccc4)[C@H]21)C3(C)C [Docetaxel] (first compound 0.2 µM, partner dose 0.0001 µM) | 45.3%
17 | N#CC[C@H](C1CCCC1)n1cc(-c2ncnc3[nH]ccc23)cn1 [ruxolitinib] + NC(=O)c1ccc(N(C(N)=O)c2c(F)cccc2F)nc1-c1ccc(F)cc1F [VX702] (first compound 1 µM, partner dose 0.4 µM) | 145%
18 | N#CC[C@H](C1CCCC1)n1cc(-c2ncnc3[nH]ccc23)cn1 [ruxolitinib] + Cn1sc(=O)n(Cc2ccccc2)c1=O [TDZD-8] (first compound 1 µM, partner dose 0.4 µM) | 135%
19 | CC[C@]1(O)C[C@H]2CN(CCc3c([nH]c4ccccc34)[C@@](C(=O)OC)(c3cc4c(cc3OC)N(C=O)[C@H]3[C@@](O)(C(=O)OC)[C@H](OC(C)=O)[C@]5(CC)C=CCN6CC[C@]43[C@@H]65)C2)C1 [vincristine] + C[C@@H](Oc1cc(-c2cnn(C3CCNCC3)c2)cnc1N)c1c(Cl)ccc(F)c1Cl [Crizotinib] (first compound 0.0001 µM, partner dose 0.2 µM) | 45.1%
20 | O=c1[nH]nc(Sc2ncc([N+](=O)[O-])s2)n1-c1ccc2c(c1)OCCO2 + CN(c1ncccc1CNc1nc(Nc2ccc3c(c2)CC(=O)N3)ncc1C(F)(F)F)S(C)(=O)=O [PF562271] (first compound 0.2 µM, partner dose 0.08 µM) | 143%
21 | O=C(Nc1cc(C(F)(F)F)cc(C(F)(F)F)c1)c1cc(Cl)ccc1O + Nc1ccn([C@@H]2O[C@H](CO)[C@@H](O)C2(F)F)c(=O)n1 [gemcitabine] (first compound 0.016 µM, partner dose 0.0004 µM) | 79.2%
22 | COc1cc([C@@H]2c3cc4c(cc3[C@@H](O[C@@H]3O[C@@H]5CO[C@@H](C)O[C@H]5[C@H](O)[C@H]3O)[C@H]3COC(=O)[C@H]23)OCO4)cc(OC)c1O [etoposide] + CCCS(=O)(=O)Nc1ccc(F)c(C(=O)c2c[nH]c3ncc(Cl)cc23)c1F [PLX4720] (first compound 0.02 µM, partner dose 0.08 µM) | 26.3%
23 | CC[C@]1(O)C[C@H]2CN(CCc3c([nH]c4ccccc34)[C@@](C(=O)OC)(c3cc4c(cc3OC)N(C=O)[C@H]3[C@@](O)(C(=O)OC)[C@H](OC(C)=O)[C@]5(CC)C=CCN6CC[C@]43[C@@H]65)C2)C1 [vincristine] + Cn1c(=O)n(-c2ccc(C(C)(C)C#N)cc2)c2c3cc(-c4cnc5ccccc5c4)ccc3ncc21 [NVP-BEZ235] (first compound 0.0001 µM, partner dose 0.004 µM) | 84.2%
24 | COc1cc([C@@H]2c3cc4c(cc3[C@@H](O[C@@H]3O[C@@H]5CO[C@@H](C)O[C@H]5[C@H](O)[C@H]3O)[C@H]3COC(=O)[C@H]23)OCO4)cc(OC)c1O [etoposide] + CN(c1ncccc1CNc1nc(Nc2ccc3c(c2)CC(=O)N3)ncc1C(F)(F)F)S(C)(=O)=O [PF562271] (first compound 0.02 µM, partner dose 0.08 µM) | 131%

A few values from the results shown:
cleaved PARP positive nuclei fraction with N#CC[C@H](C1CCCC1)n1cc(-c2ncnc3[nH]ccc23)cn1 [ruxolitinib] + NC(=O)c1ccc(N(C(N)=O)c2c(F)cccc2F)nc1-c1ccc(F)cc1F [VX702] (first compound 1 µM, partner dose 0.4 µM) reads 145%
cleaved PARP positive nuclei fraction with Cc1cn(-c2cc(NC(=O)c3ccc(C)c(Nc4nccc(-c5cccnc5)n4)c3)cc(C(F)(F)F)c2)cn1 [nilotinib] + CCCS(=O)(=O)Nc1ccc(F)c(C(=O)c2c[nH]c3ncc(Cl)cc23)c1F [PLX4720] (first compound 0.2 µM, partner dose 0.08 µM) reads 65.1%
